{"source": "PubChem BioAssay AID1259254 (NCATS, 2017)", "screen": "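Genome-wide screen for genes that prevent DNA re-replication in cancer cells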 (primary screen)", "system": "human HCT116 colorectal cancer cells", "reagents": "single siRNA against human genes", "timing": "3 days", "read-out": "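Nuclei stained with Hoechst and imaged; cell-cycle phase assigned by DNA content; G2 share scaled per plate, non-targeting siRNA 0%, GMNN siRNA 100%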", "scale": "G2 robust z-score: higher = more G2 cells, more excess DNA replication", "hit rule": "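Active siRNAs have a G2 robust z of 5 or more median absolute deviations over the median, which in these data means about 38% or higher of GMNN control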", "note": "Here is an unselected part of about 59,000 reagents. Over the whole deposit, about 1,550 (2.6%) were called active. 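G2 share is only a proxy for re-replication; each gene was hit by three separate siRNAs, and active genes were retested.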 The numbers tell different reagents against one gene apart. Further read-outs or replicates are left out here. No sequences are given here. Not given: the amount of reagent."}
{"Gene": "PSMA4", "siRNA no.": 1, "G2 robust z-score": 3.45, "call": "inactive"}
{"Gene": "PSMA4", "siRNA no.": 2, "G2 robust z-score": 0.586, "call": "inactive"}
{"Gene": "PSMA4", "siRNA no.": 3, "G2 robust z-score": 5.07, "call": "active"}
{"Gene": "PRMT9", "siRNA no.": 1, "G2 robust z-score": 0.591, "call": "inactive"}
{"Gene": "PRMT9", "siRNA no.": 2, "G2 robust z-score": 0.868, "call": "inactive"}
{"Gene": "PRMT9", "siRNA no.": 3, "G2 robust z-score": 3.13, "call": "inactive"}

Copied from the entries so far, 2 entries:
{"Gene": "PSMA4", "siRNA no.": 1, "G2 robust z-score": 3.45, "call": "inactive"}
{"Gene": "PSMA4", "siRNA no.": 2, "G2 robust z-score": 0.586, "call": "inactive"}

Continued:
{"Gene": "RGS1", "siRNA no.": 1, "G2 robust z-score": 0.336, "call": "inactive"}
{"Gene": "RGS1", "siRNA no.": 2, "G2 robust z-score": 0.253, "call": "inactive"}
{"Gene": "RGS1", "siRNA no.": 3, "G2 robust z-score": 0.212, "call": "inactive"}
{"Gene": "OR9G4", "siRNA no.": 1, "G2 robust z-score": -0.01, "call": "inactive"}
{"Gene": "OR9G4", "siRNA no.": 2, "G2 robust z-score": 1.18, "call": "inactive"}
{"Gene": "OR9G4", "siRNA no.": 3, "G2 robust z-score": -0.172, "call": "inactive"}
{"Gene": "PHC1", "siRNA no.": 1, "G2 robust z-score": 1.07, "call": "inactive"}
{"Gene": "PHC1", "siRNA no.": 2, "G2 robust z-score": -0.64, "call": "inactive"}
{"Gene": "PHC1", "siRNA no.": 3, "G2 robust z-score": 0.841, "call": "inactive"}
{"Gene": "TRIM46", "siRNA no.": 1, "G2 robust z-score": 4.02, "call": "inactive"}
{"Gene": "TRIM46", "siRNA no.": 2, "G2 robust z-score": 0.455, "call": "inactive"}
{"Gene": "TRIM46", "siRNA no.": 3, "G2 robust z-score": 7.53, "call": "active"}
